Experimental data: PubChem BioAssay AID1259425 (University of Nebraska Medical Center, 2018)
The deposit covers about 14,000 reagents; shown is a random part of them. Further read-outs or replicates are left out here. Not stated in the record: the time to read-out.

Assay: 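Compare each knockdown with KSR1 silencing using changes in marker transcripts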 (primary screen)
Cell system: HCT116 human colon cancer cells
Knock-down reagent: siRNA pool against human genes, 50 nM siRNA
Read-out: 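mRNA of six signature genes measured together by branched-DNA assay after 50 nM siRNA pool, blank removed, divided by geometric mean of two housekeeping genes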
Direction: BNIP3L mRNA: higher = more BNIP3L transcript after knockdown; NDRG1 mRNA: higher = more NDRG1 transcript after knockdown

CXCL1 (GeneID 2919) scored BNIP3L mRNA, set 1 = 0.121; NDRG1 mRNA, set 1 = 0.243. Silencing of GPT (GeneID 2875) gave: BNIP3L mRNA, set 1 = 0.118; NDRG1 mRNA, set 1 = 0.187. With knock-down of SLC6A14 (GeneID 11254), the screen gave BNIP3L mRNA, set 1 = 0.0816; NDRG1 mRNA, set 1 = 0.112. PDRG1 (GeneID 81572) showed BNIP3L mRNA, set 1 = 0.113; NDRG1 mRNA, set 1 = 0.459. Against PFKL (GeneID 5211), the entry reads BNIP3L mRNA, set 1 = 0.237; NDRG1 mRNA, set 1 = 0.172.

2 entries from above, reformatted:
{"Gene":"SLC6A14 (GeneID 11254)","BNIP3L mRNA, set 1":0.0816,"NDRG1 mRNA, set 1":0.112}
{"Gene":"PDRG1 (GeneID 81572)","BNIP3L mRNA, set 1":0.113,"NDRG1 mRNA, set 1":0.459}

The results go on.
For HCG9 (GeneID 10255), the values are BNIP3L mRNA, set 1 = 0.162; NDRG1 mRNA, set 1 = 0.217. With knock-down of HIBADH (GeneID 11112) the results were BNIP3L mRNA, set 1 = 0.183; NDRG1 mRNA, set 1 = 1.01. After knock-down of HMCN1 (GeneID 83872), the screen gave BNIP3L mRNA, set 1 = 0.165; NDRG1 mRNA, set 1 = 1.67. Depletion of ARHGEF10 (GeneID 9639) came out at: BNIP3L mRNA, set 1 = 0.136; NDRG1 mRNA, set 1 = 0.159. Against FBLIM1 (GeneID 54751) the deposit lists BNIP3L mRNA, set 1 = 0.0698; NDRG1 mRNA, set 1 = 0.882. Against VAV1 (GeneID 7409), the entry reads BNIP3L mRNA, set 1 = 0.117; NDRG1 mRNA, set 1 = 0.283.

UPK1A (GeneID 11045) gave BNIP3L mRNA, set 1 = 0.109; NDRG1 mRNA, set 1 = 0.182.
